Data on eleven compounds can be found in the supplement of paper PMC12024529.

Counter-ions that a name gives are not always drawn. The list shows a part of the results. Part of the spread comes from offsets between plates or batches.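 The cells are HEK293 lines stably expressing B-domain-deleted factor VIII fused to Gaussia luciferase, either wild type or a misfolding-prone missense mutant. Each score is mean luminescence from triplicate wells minus the DMSO mean, divided by the DMSO standard deviation; a score of 2 or more counts as a hit, and low scores may reflect lower secretion or poorer cell viability.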

This experiment relates to HEK293 WT BDD-FVIII-Gluc. The experiment can be described thus: secreted FVIII-Gluc luciferase Z-score vs DMSO control; higher = more FVIII-Gluc secretion. The following applies: 5 µM; 24 h.
Take `CC(=O)OC1CN2CCC1CC2` (stereo unspecified) [Aceclidine HCl]: the “secreted FVIII-Gluc luciferase Z-score” value was inactive: -0.287.

As for `CC(=O)O[C@H]1C[C@@H]2CC[C@@H]3[C@H](CC[C@@]4(C)[C@H]3C[C@H]([N+]3(C)CCCCC3)[C@@H]4OC(C)=O)[C@@]2(C)C[C@@H]1[N+]1(C)CCCCC1` [Pancuronium (Pavulon)], the “secreted FVIII-Gluc luciferase Z-score” value was inactive: -0.657.

For the compound `NCC(O)c1ccc(O)cc1` (racemic) [(+,-)-Octopamine HCl], the “secreted FVIII-Gluc luciferase Z-score” value is inactive: -1.07.

In the case of `CN1C2CC(O)CC1C1OC12` (stereo unspecified) [Scopine], the “secreted FVIII-Gluc luciferase Z-score” value was inactive: 1.1.

For `CCC1(c2cccc(O)c2)CCCCN(C)C1` (stereo unspecified) [Meptazinol HCl], the “secreted FVIII-Gluc luciferase Z-score” value is inactive: 0.22.

Turning to `CC[C@@]1(O)C(=O)OCc2c1cc1n(c2=O)Cc2cc3ccccc3nc2-1` [Camptothecin], the “secreted FVIII-Gluc luciferase Z-score” value was inactive: -13.9.

Consider `CN(C)[C@@H]1C(=O)C(C(N)=O)=C(O)[C@@]2(O)C(=O)C3=C(O)c4c(O)cccc4[C@@](C)(O)[C@H]3C[C@@H]12` [Tetracycline HCl], for which the “secreted FVIII-Gluc luciferase Z-score” value was inactive: 0.706.

Regarding `CN(C)[C@@H]1C(=O)C(C(N)=O)=C(O)[C@@]2(O)C(=O)C3=C(O)c4c(O)cccc4[C@@](C)(O)[C@H]3[C@H](O)[C@@H]12` [Oxytetracycline (Terramycin)], the “secreted FVIII-Gluc luciferase Z-score” value is inactive: 0.93.

Turning to `O=c1[nH]c2ccccc2n1C1CCN(CCCC(c2ccc(F)cc2)c2ccc(F)cc2)CC1` [Pimozide], the “secreted FVIII-Gluc luciferase Z-score” value is inactive: -4.

In the case of `Cc1cc(O)ccc1Cl` [Chlorocresol], the “secreted FVIII-Gluc luciferase Z-score” value is inactive: 0.108.

For `CCCN1C[C@H](CSC)C[C@@H]2c3cccc4[nH]cc(c34)C[C@H]21` [Pergolide mesylate], the “secreted FVIII-Gluc luciferase Z-score” value was inactive: -0.664.
